Test results as given in the supplement of paper PMC10849652.
This is one part of the list.

Protein sequences, listed by entry. Tags and fused reporters are not part of them. Lines headed by an entry give the natural chain unless they say otherwise; changes in a name come on top.
UniProt P57088: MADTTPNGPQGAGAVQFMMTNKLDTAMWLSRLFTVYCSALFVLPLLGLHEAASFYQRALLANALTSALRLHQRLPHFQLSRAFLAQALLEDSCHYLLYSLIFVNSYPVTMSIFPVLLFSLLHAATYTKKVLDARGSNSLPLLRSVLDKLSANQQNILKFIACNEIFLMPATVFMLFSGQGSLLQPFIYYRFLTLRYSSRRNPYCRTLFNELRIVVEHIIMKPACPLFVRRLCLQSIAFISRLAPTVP
UniProt Q8N511: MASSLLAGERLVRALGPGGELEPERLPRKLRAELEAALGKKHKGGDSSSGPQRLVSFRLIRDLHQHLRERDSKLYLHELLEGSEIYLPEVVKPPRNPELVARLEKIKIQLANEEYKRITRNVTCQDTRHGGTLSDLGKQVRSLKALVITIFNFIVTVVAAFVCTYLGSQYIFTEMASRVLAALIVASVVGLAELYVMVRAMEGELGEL
UniProt Q9BZW5, whole entry, looked up: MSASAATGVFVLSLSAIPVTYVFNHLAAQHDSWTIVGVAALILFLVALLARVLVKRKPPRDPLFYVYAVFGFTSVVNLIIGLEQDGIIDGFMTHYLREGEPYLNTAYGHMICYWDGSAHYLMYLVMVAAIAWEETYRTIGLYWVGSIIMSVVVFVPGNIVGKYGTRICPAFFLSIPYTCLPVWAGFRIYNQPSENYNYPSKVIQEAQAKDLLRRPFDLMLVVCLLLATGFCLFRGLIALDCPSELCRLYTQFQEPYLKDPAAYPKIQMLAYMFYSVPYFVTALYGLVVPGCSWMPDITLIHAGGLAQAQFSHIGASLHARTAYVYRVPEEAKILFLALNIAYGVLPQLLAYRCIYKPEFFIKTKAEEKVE
UniProt Q96I45: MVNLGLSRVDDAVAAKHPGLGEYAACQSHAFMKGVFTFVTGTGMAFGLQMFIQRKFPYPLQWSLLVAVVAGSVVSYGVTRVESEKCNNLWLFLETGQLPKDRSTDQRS
UniProt Q96Q45: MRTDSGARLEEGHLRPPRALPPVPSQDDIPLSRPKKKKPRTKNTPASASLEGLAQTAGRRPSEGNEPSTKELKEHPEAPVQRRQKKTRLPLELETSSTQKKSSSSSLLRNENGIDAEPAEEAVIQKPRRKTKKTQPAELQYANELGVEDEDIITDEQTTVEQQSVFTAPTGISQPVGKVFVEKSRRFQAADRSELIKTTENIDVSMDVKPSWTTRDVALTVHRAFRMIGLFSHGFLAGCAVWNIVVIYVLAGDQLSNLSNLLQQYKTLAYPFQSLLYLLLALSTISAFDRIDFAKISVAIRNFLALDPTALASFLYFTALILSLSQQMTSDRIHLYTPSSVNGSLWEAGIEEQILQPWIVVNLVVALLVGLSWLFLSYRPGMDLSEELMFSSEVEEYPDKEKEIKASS
UniProt Q9Y2S6, whole entry, looked up: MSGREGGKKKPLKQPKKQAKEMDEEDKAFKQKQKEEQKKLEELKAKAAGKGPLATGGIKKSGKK
UniProt Q9BVT8: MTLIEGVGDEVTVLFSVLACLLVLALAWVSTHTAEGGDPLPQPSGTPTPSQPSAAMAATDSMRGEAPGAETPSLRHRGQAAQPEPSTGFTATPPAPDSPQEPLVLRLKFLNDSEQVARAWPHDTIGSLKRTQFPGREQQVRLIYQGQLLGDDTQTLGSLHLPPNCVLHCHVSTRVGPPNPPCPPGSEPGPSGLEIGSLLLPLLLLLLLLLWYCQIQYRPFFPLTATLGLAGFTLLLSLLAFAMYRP
UniProt P55061, whole entry, looked up: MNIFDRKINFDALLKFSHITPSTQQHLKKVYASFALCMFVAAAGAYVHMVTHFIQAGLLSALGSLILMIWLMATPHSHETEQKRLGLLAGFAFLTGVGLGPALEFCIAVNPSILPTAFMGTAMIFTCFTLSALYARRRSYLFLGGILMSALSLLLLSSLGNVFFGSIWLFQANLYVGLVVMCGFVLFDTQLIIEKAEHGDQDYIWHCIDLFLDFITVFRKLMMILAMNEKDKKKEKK
UniProt Q9NS93: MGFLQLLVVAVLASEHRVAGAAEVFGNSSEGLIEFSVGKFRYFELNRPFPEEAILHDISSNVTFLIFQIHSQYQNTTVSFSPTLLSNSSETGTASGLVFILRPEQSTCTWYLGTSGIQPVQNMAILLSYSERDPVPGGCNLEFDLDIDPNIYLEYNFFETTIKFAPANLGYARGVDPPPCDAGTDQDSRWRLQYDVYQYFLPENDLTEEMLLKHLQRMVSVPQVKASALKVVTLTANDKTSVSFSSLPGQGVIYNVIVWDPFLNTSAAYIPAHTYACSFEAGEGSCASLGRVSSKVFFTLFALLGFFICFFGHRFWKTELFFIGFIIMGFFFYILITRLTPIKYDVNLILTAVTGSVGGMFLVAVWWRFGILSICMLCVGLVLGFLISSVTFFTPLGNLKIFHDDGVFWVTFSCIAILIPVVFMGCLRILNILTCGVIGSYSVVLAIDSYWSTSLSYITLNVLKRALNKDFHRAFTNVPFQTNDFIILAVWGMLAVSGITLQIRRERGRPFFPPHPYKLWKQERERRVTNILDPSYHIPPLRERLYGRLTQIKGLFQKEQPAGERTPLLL
UniProt Q9HD45: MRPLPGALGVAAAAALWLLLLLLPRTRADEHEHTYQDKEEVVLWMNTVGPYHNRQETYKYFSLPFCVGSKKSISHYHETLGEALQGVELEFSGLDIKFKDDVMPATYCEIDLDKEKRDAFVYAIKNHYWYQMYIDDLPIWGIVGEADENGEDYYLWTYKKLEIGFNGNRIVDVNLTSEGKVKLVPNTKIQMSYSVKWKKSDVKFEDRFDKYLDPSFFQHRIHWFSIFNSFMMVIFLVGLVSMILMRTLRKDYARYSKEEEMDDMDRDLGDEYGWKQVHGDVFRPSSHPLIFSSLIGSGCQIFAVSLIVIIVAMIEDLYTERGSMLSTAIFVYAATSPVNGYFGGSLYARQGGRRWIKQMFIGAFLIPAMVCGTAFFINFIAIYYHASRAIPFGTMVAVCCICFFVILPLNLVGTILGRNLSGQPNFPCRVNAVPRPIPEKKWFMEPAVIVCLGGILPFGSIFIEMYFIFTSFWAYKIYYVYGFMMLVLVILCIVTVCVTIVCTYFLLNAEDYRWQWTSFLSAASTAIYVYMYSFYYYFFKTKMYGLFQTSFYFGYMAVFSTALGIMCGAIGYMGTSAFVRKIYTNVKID
UniProt Q92545: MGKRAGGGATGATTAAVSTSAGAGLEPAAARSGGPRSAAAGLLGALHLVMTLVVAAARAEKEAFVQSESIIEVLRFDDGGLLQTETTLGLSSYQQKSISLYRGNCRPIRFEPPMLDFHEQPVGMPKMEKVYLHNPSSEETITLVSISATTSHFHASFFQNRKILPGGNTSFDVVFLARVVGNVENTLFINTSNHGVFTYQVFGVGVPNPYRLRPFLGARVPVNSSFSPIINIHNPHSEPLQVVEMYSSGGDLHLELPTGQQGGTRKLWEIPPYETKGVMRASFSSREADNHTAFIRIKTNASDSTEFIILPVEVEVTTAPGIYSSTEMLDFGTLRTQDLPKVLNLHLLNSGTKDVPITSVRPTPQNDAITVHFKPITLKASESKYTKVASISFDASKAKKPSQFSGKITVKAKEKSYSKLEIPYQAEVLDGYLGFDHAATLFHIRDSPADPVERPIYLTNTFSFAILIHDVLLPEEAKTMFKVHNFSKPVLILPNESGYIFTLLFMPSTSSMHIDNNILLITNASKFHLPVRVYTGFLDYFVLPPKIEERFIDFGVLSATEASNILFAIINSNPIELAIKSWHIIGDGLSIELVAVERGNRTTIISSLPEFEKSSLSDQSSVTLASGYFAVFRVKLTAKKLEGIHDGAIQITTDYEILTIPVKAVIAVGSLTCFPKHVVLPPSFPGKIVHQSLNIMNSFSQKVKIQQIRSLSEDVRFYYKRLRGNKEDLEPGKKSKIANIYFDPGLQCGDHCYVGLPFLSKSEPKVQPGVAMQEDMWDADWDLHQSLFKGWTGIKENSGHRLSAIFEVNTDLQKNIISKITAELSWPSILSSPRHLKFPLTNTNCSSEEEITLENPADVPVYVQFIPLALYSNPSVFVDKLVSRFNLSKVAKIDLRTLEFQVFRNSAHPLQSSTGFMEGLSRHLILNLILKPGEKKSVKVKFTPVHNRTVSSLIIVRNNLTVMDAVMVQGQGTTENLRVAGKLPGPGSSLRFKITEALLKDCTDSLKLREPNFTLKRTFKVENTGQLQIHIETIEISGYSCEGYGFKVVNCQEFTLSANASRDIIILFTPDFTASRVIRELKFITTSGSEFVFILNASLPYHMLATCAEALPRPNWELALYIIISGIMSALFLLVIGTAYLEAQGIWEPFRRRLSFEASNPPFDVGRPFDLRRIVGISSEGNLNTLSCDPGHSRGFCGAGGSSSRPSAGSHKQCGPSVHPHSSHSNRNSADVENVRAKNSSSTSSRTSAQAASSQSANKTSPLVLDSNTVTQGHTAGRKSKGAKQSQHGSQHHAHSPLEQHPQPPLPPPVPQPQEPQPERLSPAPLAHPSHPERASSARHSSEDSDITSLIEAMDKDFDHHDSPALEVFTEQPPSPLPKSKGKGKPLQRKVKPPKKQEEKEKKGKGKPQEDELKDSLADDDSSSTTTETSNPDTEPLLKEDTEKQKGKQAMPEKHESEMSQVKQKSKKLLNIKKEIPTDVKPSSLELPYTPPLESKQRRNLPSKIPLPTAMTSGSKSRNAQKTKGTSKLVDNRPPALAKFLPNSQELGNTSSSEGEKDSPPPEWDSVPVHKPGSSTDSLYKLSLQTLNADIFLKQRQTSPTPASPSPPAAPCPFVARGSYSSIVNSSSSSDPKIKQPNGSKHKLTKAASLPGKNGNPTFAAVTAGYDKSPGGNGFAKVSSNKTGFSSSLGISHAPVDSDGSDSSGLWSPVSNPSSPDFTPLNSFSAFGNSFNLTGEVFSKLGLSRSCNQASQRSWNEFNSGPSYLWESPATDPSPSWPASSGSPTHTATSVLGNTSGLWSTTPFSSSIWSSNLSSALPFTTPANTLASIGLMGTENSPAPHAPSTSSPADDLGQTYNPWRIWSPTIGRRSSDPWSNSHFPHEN
UniProt Q9H0R3: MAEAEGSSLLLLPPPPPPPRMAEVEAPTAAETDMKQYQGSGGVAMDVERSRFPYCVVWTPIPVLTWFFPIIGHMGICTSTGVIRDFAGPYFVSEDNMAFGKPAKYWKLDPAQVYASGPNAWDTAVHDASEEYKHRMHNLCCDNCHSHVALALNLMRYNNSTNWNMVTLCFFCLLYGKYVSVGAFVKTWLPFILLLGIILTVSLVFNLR
UniProt Q9NZR1: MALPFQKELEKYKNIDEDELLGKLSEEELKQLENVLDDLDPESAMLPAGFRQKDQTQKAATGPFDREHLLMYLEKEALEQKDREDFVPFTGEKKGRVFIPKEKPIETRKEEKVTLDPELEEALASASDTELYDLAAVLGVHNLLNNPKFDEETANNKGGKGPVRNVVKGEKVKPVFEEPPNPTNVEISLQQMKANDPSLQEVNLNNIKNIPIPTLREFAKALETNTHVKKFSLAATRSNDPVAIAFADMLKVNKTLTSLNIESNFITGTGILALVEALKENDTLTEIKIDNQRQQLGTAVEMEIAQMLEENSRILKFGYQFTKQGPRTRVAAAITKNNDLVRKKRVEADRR
UniProt Q9NX00: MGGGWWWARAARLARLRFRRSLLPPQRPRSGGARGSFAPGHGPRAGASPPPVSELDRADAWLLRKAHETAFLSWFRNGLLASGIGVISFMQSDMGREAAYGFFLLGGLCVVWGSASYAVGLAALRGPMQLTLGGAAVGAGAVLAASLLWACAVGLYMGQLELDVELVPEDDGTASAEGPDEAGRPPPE
UniProt Q9H3N1: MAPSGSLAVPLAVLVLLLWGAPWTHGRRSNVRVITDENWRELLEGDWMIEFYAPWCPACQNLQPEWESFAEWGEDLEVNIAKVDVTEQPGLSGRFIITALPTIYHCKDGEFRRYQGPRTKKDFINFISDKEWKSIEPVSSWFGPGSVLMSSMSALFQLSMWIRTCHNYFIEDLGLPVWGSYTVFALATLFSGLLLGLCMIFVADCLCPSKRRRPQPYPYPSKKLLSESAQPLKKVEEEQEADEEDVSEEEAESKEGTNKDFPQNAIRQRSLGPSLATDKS
UniProt Q9P0S9: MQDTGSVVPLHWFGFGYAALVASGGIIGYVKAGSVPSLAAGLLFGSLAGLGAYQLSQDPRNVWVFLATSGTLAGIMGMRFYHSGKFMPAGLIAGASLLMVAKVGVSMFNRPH
UniProt Q8N131: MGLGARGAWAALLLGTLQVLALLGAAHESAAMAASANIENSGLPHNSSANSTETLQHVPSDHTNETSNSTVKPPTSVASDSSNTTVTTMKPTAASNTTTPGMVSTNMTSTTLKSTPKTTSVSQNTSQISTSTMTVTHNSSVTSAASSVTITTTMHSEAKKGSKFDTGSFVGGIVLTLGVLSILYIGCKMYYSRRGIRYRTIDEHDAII
UniProt Q86XT9, whole entry, looked up: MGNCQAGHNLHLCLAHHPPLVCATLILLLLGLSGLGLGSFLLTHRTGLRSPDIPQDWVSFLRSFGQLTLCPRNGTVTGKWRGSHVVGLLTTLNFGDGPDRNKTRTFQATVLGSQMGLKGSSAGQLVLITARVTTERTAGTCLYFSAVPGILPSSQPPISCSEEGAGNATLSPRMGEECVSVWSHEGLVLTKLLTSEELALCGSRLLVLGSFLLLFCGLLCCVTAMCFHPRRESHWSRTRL

Columns and labels:
Assay in all cases: log2 fold change, soluble protein after heating vs DMSO (PISA); higher = thermal stabilisation; K562 cells, 10 uM, 30 min; active = over 0.2 and 3.5 SD of the protein, either way, in both replicates (recomputed)
[1] = compound: NC(=O)Nc1cc(-c2cccc(F)c2)sc1C(=O)N[C@H]1CCCNC1
Summary of the method: (§1)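 Soluble protein was defined as the supernatant after 21,000xg for 90 min. It came from K562 cells at 2×10^6 cells/mL given 10 μM compound for 30 min, heated in aliquots for 3 min across 48°C-58°C, pooled, and extracted in PBS with 0.5% NP-40 at 4°C, and was quantified by TMTpro 16plex LC-MS/MS with equalised channel sums. Thermal stability against control samples, from duplicates, is reported as log2 fold change.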

[2] = compound: NC(=O)c1cnc(N[C@@H]2CCCC[C@@H]2N)nc1Nc1cccc(-n2nccn2)c1
Summary of the method: as §1

[3] = compound: NC1(c2ccc(-c3nc4ccn5c(=O)[nH]nc5c4cc3-c3ccccc3)cc2)CCC1
Summary of the method: as §1

[4] = compound: NCC(=O)Nc1ccc(-n2nc(C(F)(F)F)cc2-c2ccc3c(ccc4ccccc43)c2)cc1
Summary of the method: as §1

entinostat = compound: Nc1ccccc1NC(=O)c1ccc(CNC(=O)OCc2cccnc2)cc1 [entinostat]
Summary of the method: as §1

vorinostat = compound: O=C(CCCCCCC(=O)Nc1ccccc1)NO [vorinostat]
Summary of the method: as §1

citarinostat = compound: O=C(CCCCCCNC(=O)c1cnc(N(c2ccccc2)c2ccccc2Cl)nc1)NO [citarinostat]
Summary of the method: as §1

silmitasertib = compound: O=C(O)c1ccc2c(c1)nc(Nc1cccc(Cl)c1)c1ccncc12 [silmitasertib]
Summary of the method: as §1

[5] = compound: O=C1NC(=O)C(c2cnc3ccccn23)=C1c1cn2c3c(cc(F)cc13)CN(C(=O)N1CCCCC1)CC2
Summary of the method: as §1

[6] = compound: c1cc(OCCN2CCCCC2)cc(-c2n[nH]c3ccc(-c4nnc[nH]4)cc23)c1
Summary of the method: as §1

entospletinib = compound: c1cn2cc(-c3ccc4cn[nH]c4c3)nc(Nc3ccc(N4CCOCC4)cc3)c2n1 [entospletinib]
Summary of the method: as §1

| Target | log2 fold change [1] | log2 fold change [2] | log2 fold change [3] | log2 fold change [4] | log2 fold change (entinostat) | log2 fold change (vorinostat) | log2 fold change (citarinostat) | log2 fold change (silmitasertib) | log2 fold change [5] | log2 fold change [6] | log2 fold change (entospletinib) |
| --- | --- | --- | --- | --- | --- | --- | --- | --- | --- | --- | --- |
| TMEM33 (UniProt P57088) | inactive: -0.005 | inactive: 0.005 | inactive: -0.022 | inactive: -0.019 | inactive: 0.002 | inactive: -0.006 | inactive: 0.069 | inactive: 0.013 | inactive: 0.01 | inactive: -0.085 | inactive: 0.003 |
| TMEM199 (UniProt Q8N511) | inactive: 0.094 | inactive: -0.064 | inactive: -0.033 | inactive: -0.075 | inactive: 0.009 | inactive: -0.066 | inactive: 0.054 | inactive: -0.032 | inactive: -0.078 | inactive: 0.123 | inactive: -0.015 |
| TM6SF1 (UniProt Q9BZW5) | inactive: 0.054 | inactive: 0.085 | inactive: 0.061 | inactive: -0.017 | inactive: -0.063 | inactive: 0.023 |  | inactive: 0.142 | inactive: -0.029 |  |  |
| TMEM268 isoform 3 (UniProt Q5VZI3) | inactive: 0.12 | inactive: 0.057 | inactive: -0.141 |  | inactive: 0.059 | inactive: 0.162 | inactive: 0.084 | inactive: -0.114 | inactive: 0.174 | inactive: -0.117 |  |
| TLR9 isoform 4 (UniProt Q9NR96) | inactive: -0.068 | inactive: -0.063 | inactive: -0.12 | inactive: -0.088 | inactive: 0.018 |  | inactive: -0.073 | inactive: 0.075 | inactive: -0.121 | inactive: 0 | inactive: 0.162 |
| TMEM141 (UniProt Q96I45) | inactive: -0.046 | inactive: -0.012 | inactive: 0.043 | inactive: -0.108 | inactive: -0.089 | inactive: 0.021 | inactive: 0.013 | inactive: 0.051 |  | inactive: 0.09 | inactive: -0.113 |
| TMEM128 (UniProt Q5BJH2) | inactive: -0.059 | inactive: -0.167 |  | inactive: -0.092 | inactive: -0.036 |  | inactive: -0.131 |  | inactive: -0.037 | inactive: -0.07 |  |
| TMEM237 isoform 3 (UniProt Q96Q45) | inactive: 0.019 |  | inactive: 0.102 | inactive: 0.26 | inactive: 0.097 | inactive: 0.272 | inactive: 0.05 | inactive: 0.104 | inactive: 0.265 | inactive: -0.148 | inactive: 0.013 |
| TMA7 (UniProt Q9Y2S6) | inactive: -0.042 | inactive: -0.035 | inactive: 0.023 | inactive: 0.021 | inactive: 0 | inactive: -0.085 | inactive: -0.049 | inactive: -0.027 | inactive: -0.029 | inactive: 0.007 | inactive: 0.021 |
| TMUB1 (UniProt Q9BVT8) | inactive: 0.107 | inactive: 0.057 | inactive: -0.004 | inactive: 0.044 | inactive: 0.006 | inactive: 0.013 | inactive: 0.038 | inactive: -0.073 | inactive: 0.205 | inactive: -0.071 | inactive: -0.076 |
| TMBIM6 isoform 2 (UniProt P55061) | inactive: 0.027 | inactive: -0.119 | inactive: 0.189 | inactive: -0.015 | inactive: 0.044 |  | inactive: 0.05 | inactive: -0.206 | inactive: -0.089 | inactive: -0.067 |  |
| TMEM209 (UniProt Q96SK2) | inactive: 0.01 | inactive: 0 | inactive: -0.012 | inactive: -0.048 | inactive: 0.037 | inactive: 0.03 | inactive: 0.004 | inactive: 0.017 | inactive: 0.038 | inactive: -0.05 | inactive: -0.083 |
| TM7SF3 (UniProt Q9NS93) | inactive: 0.091 | inactive: 0.048 | active: -0.359 |  | inactive: 0.076 |  | inactive: 0.179 | inactive: 0.066 |  | inactive: 0.084 |  |
| TM9SF3 (UniProt Q9HD45) | inactive: 0.002 | inactive: 0.012 | inactive: -0.006 | inactive: -0.066 | inactive: -0.013 | inactive: -0.038 | inactive: -0.019 | inactive: -0.076 | inactive: 0.011 | inactive: -0.015 | inactive: 0.024 |
| TMEM185B (UniProt Q9H7F4) | inactive: -0.041 | inactive: -0.038 | inactive: -0.04 | inactive: -0.026 | inactive: 0.04 | inactive: -0.029 | inactive: 0.147 | inactive: 0.047 | inactive: -0.017 | inactive: 0.033 | inactive: 0 |
| TMEM131 (UniProt Q92545) | inactive: 0.09 | inactive: -0.014 |  |  | inactive: 0.023 | inactive: -0.073 |  |  |  |  |  |
| TMEM147 (UniProt Q9BVK8) | inactive: -0.035 | inactive: -0.089 | inactive: -0.12 | inactive: -0.179 | inactive: 0.026 |  |  | inactive: 0.174 | inactive: 0.045 |  |  |
| TMEM8A (UniProt Q9HCN3) | inactive: -0.059 |  | inactive: -0.393 | inactive: -0.048 | inactive: -0.485 | inactive: -0.077 | inactive: -0.037 | inactive: 0.053 |  | inactive: -0.056 |  |
| TMEM222 (UniProt Q9H0R3) | inactive: -0.011 | inactive: 0.181 | inactive: -0.102 | inactive: -0.047 | inactive: -0.027 | inactive: -0.001 | inactive: -0.043 | inactive: 0.022 | inactive: 0.015 | inactive: -0.067 | inactive: 0.034 |
| TMOD2 (UniProt Q9NZR1) | inactive: 0.05 | inactive: 0.052 | inactive: 0.138 | inactive: 0.096 | inactive: 0.067 | inactive: 0.037 | inactive: 0.056 | inactive: -0.008 | inactive: 0.003 | inactive: 0.199 | inactive: 0.081 |
| TMEM205 (UniProt Q6UW68) | inactive: -0.028 |  | inactive: 0.056 | inactive: 0.133 | inactive: -0.003 | inactive: -0.124 | inactive: 0.049 | inactive: 0.042 | inactive: 0 | inactive: -0.057 | inactive: 0.05 |
| TMEM179B (UniProt Q7Z7N9) | inactive: -0.235 | inactive: 0.079 | inactive: -0.255 |  | inactive: 0.04 | inactive: -0.156 | inactive: -0.019 | inactive: -0.043 | inactive: -0.173 | inactive: -0.112 |  |
| TMCO1 (UniProt Q9UM00) | inactive: -0.047 | inactive: -0.065 | inactive: 0.074 | inactive: 0.032 | inactive: 0.035 | inactive: -0.045 | inactive: -0.003 | inactive: -0.092 | inactive: -0.069 | inactive: 0.061 | inactive: -0.041 |
| TMEM160 (UniProt Q9NX00) | inactive: 0.042 | inactive: 0.017 | inactive: 0.143 | inactive: -0.112 | inactive: -0.058 | inactive: 0.06 | inactive: 0.013 | inactive: -0.041 | inactive: 0.045 | inactive: -0.177 | inactive: 0.06 |
| TMX1 (UniProt Q9H3N1) | inactive: -0.006 | inactive: -0.008 | inactive: -0.036 | inactive: -0.026 | inactive: -0.024 | inactive: 0.015 | inactive: -0.048 | inactive: -0.006 | inactive: -0.074 | inactive: -0.029 | inactive: 0.016 |
| TMEM14C (UniProt Q9P0S9) | inactive: 0.105 | inactive: -0.08 | inactive: 0.011 | inactive: 0.047 | inactive: -0.04 | inactive: 0.086 | inactive: 0.107 | inactive: 0.052 |  | inactive: -0.086 | inactive: 0.093 |
| TMEM123 (UniProt Q8N131) | inactive: 0.001 | inactive: -0.04 | inactive: 0.137 | inactive: -0.019 | inactive: 0 |  | inactive: 0.096 | inactive: 0.101 | inactive: 0.017 | inactive: -0.092 | inactive: 0.003 |
| TMEM219 (UniProt Q86XT9) | inactive: 0.079 | inactive: 0.033 |  | inactive: 0.036 | inactive: 0.052 | active: 0.389 |  |  | inactive: -0.025 |  |  |

2 records drawn at random from the list so far, as already listed:

| Target | log2 fold change [1] | log2 fold change [2] | log2 fold change [3] | log2 fold change [4] | log2 fold change (entinostat) | log2 fold change (vorinostat) | log2 fold change (citarinostat) | log2 fold change (silmitasertib) | log2 fold change [5] | log2 fold change [6] | log2 fold change (entospletinib) |
| --- | --- | --- | --- | --- | --- | --- | --- | --- | --- | --- | --- |
| TMEM8A (UniProt Q9HCN3) | inactive: -0.059 |  | inactive: -0.393 | inactive: -0.048 | inactive: -0.485 | inactive: -0.077 | inactive: -0.037 | inactive: 0.053 |  | inactive: -0.056 |  |
| TMEM147 (UniProt Q9BVK8) | inactive: -0.035 | inactive: -0.089 | inactive: -0.12 | inactive: -0.179 | inactive: 0.026 |  |  | inactive: 0.174 | inactive: 0.045 |  |  |
